Reference: the supplement of paper PMC10077471
Over roughly 1,900 compounds, “excess over highest single agent (ExcessHSA) synergy score, 6x6 matrix” has its median near -83; the lowest 2% begin near -370. The list shows a part of the results.

These compounds were tested on NCI-H446 (assay: excess over highest single agent (ExcessHSA) synergy score, 6x6 matrix; higher = less synergy (more negative = stronger synergy)). Details: 72 h; CellTiter-Glo viability.

Row | SMILES | excess over highest single agent
1 | O=C1NC(=O)/C(=C/c2ccc3nccnc3c2)S1 + Cc1sc2c(c1C)C(c1ccc(Cl)cc1)=N[C@@H](CC(=O)OC(C)(C)C)c1nnc(C)n1-2 [NCGC00250412-19] | 69.4
2 | CCOC(=O)[C@H](CCc1ccccc1)N[C@H]1CS[C@H](c2cccs2)CN(CC(=O)O)C1=O + Cc1sc2c(c1C)C(c1ccc(Cl)cc1)=N[C@@H](CC(=O)OC(C)(C)C)c1nnc(C)n1-2 [NCGC00250412-19] | -51.1
3 | NC(=O)c1c(OCc2c(F)cc(Br)cc2F)nsc1NC(=O)NCCCCN1CCCC1 + Cc1sc2c(c1C)C(c1ccc(Cl)cc1)=N[C@@H](CC(=O)OC(C)(C)C)c1nnc(C)n1-2 [NCGC00250412-19] | -187
4 | CCCCC(F)(F)[C@@]1(O)CC[C@H]2[C@@H](CC(=O)[C@@H]2CCCCCCC(=O)O)O1 + Cc1sc2c(c1C)C(c1ccc(Cl)cc1)=N[C@@H](CC(=O)OC(C)(C)C)c1nnc(C)n1-2 [NCGC00250412-19] | -107
5 | COc1ccc(F)c(F)c1C(=O)c1cnc(NC2CCN(S(C)(=O)=O)CC2)nc1N + Cc1sc2c(c1C)C(c1ccc(Cl)cc1)=N[C@@H](CC(=O)OC(C)(C)C)c1nnc(C)n1-2 [NCGC00250412-19] | -133
6 | O=c1c(-c2ccc(O)cc2)coc2cc(O[C@@H]3O[C@H](CO)[C@@H](O)[C@H](O)[C@H]3O)ccc12 + Cc1sc2c(c1C)C(c1ccc(Cl)cc1)=N[C@@H](CC(=O)OC(C)(C)C)c1nnc(C)n1-2 [NCGC00250412-19] | -180
7 | O=c1c(O)c(-c2ccc(O)cc2O)oc2cc(O)cc(O)c12 + Cc1sc2c(c1C)C(c1ccc(Cl)cc1)=N[C@@H](CC(=O)OC(C)(C)C)c1nnc(C)n1-2 [NCGC00250412-19] | -13.8
8 | OC[C@H]1O[C@@H](Oc2cc(O)cc(/C=C/c3ccc(O)cc3)c2)[C@H](O)[C@@H](O)[C@@H]1O + Cc1sc2c(c1C)C(c1ccc(Cl)cc1)=N[C@@H](CC(=O)OC(C)(C)C)c1nnc(C)n1-2 [NCGC00250412-19] | -272
9 | CC(=O)Nc1nc(C)c(-c2ccc(Cl)c(S(=O)(=O)NCCO)c2)s1 + Cc1sc2c(c1C)C(c1ccc(Cl)cc1)=N[C@@H](CC(=O)OC(C)(C)C)c1nnc(C)n1-2 [NCGC00250412-19] | 29.4
10 | N#Cc1cc(NC(=O)Nc2nnc(-c3ccncc3)s2)ccc1-c1cn[nH]c1 + Cc1sc2c(c1C)C(c1ccc(Cl)cc1)=N[C@@H](CC(=O)OC(C)(C)C)c1nnc(C)n1-2 [NCGC00250412-19] | 313
11 | COc1ccc2c(c[n+](C)c3c4cc5c(cc4ccc23)OCO5)c1OC + Cc1sc2c(c1C)C(c1ccc(Cl)cc1)=N[C@@H](CC(=O)OC(C)(C)C)c1nnc(C)n1-2 [NCGC00250412-19] | -248
